Measurements reported in PubChem BioAssay AID504784 (Drosophila RNAi Screening Center, 2011).
Screen: 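Fly genes whose silencing alters how much lipid cells keep in droplets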 (primary screen). System: Drosophila Kc167 embryonic cells. Knock-down reagent: long dsRNA against Drosophila genes, about 250 ng dsRNA per well. Time to read-out: 4 days. Treatment: cells fed 400 µM oleic acid bound to BSA. Measured: 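Microscope images give a droplet-to-nucleus area ratio, taken as log and converted to a screen-wide B-score; higher values mean greater lipid storage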. Direction: droplet/nuclear area B-score: higher = more stored lipid (overstorage).
The screen tested about 17,000 reagents; below is a random part of those that have a named target and a result. 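Each column is one replicate's B-score; the combined score over replicates was not deposited, so single values may mislead.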 Reagents against one gene are numbered here.

Target gene	reagent no.	droplet/nuclear area B-score, replicate 1	droplet/nuclear area B-score, replicate 2	droplet/nuclear area B-score, replicate 3
CG15525	1	-0.28	0.682	
mRpL2	1	3.17	2.28	
CG2082	1	0.652	-0.0913	
CG15435	1	0.719	0.615	
Spt3	1	-0.556	-0.927	
CG1924	1	0.336	0.166	-0.39
thoc7	1	0.735	0.0672	
CG32214	1	-0.157	-1.95	
CG8854	1	-0.883	-0.539	
Cbs	1	0.803	-0.161	
jigr1	1	-1.61	-1.12	
jigr1	2	1.46	1.79	
CG17118	1	-0.804	-0.517	
mRpL41	1	-0.0564	1.71	
CG4318	1	0.841	-0.367	0.768
CG1146	1	0.525	0.368	
SmydA-2	1	-0.298	0.0741	
acs	1	-0.26	-1.21	
CG30325	1	2.11	0.665	
Tsp74F	1	-0.0552	-1.35	
CG10907	1	-0.68	-0.983	
NimA	1	1.76	-0.616	
NimA	2	-0.508	0.142	
CG33136	1	0.0214	-0.0874	
spz6	1	-0.116	-1	
frma	1	-2.19	-1.03	0.0513
CG7290	1	0.604	0.629	
zfh1	1	2.47	0.015	
zfh1	2	0.915		
Trs31	1	0.974	2.68	
BaraC	1	3.52	0.0167	
CG14556	1		0.939	
CG12290	1	-0.0662		
CG17187	1	-0.176	-0.953	

Targets above whose gene name starts with T or t:
Target gene	reagent no.	droplet/nuclear area B-score, replicate 1	droplet/nuclear area B-score, replicate 2	droplet/nuclear area B-score, replicate 3
thoc7	1	0.735	0.0672	
Tsp74F	1	-0.0552	-1.35	
Trs31	1	0.974	2.68	
